Assay results as given in patent US20230340089A1 (CITY OF HOPE, published 2023).
These are yes or no findings as the source states them, for the method shown. Some results given as binding are weak or reduced against the parent protein; the word gives no strength.

How the values were obtained:
[1] = molecular target: T1, Structural Maintenance of Chromosome-1A (SMC1A) (human) (UniProt Q14683); assay: flow cytometry on live cancer cells and ICC
T1 sequence (looked up): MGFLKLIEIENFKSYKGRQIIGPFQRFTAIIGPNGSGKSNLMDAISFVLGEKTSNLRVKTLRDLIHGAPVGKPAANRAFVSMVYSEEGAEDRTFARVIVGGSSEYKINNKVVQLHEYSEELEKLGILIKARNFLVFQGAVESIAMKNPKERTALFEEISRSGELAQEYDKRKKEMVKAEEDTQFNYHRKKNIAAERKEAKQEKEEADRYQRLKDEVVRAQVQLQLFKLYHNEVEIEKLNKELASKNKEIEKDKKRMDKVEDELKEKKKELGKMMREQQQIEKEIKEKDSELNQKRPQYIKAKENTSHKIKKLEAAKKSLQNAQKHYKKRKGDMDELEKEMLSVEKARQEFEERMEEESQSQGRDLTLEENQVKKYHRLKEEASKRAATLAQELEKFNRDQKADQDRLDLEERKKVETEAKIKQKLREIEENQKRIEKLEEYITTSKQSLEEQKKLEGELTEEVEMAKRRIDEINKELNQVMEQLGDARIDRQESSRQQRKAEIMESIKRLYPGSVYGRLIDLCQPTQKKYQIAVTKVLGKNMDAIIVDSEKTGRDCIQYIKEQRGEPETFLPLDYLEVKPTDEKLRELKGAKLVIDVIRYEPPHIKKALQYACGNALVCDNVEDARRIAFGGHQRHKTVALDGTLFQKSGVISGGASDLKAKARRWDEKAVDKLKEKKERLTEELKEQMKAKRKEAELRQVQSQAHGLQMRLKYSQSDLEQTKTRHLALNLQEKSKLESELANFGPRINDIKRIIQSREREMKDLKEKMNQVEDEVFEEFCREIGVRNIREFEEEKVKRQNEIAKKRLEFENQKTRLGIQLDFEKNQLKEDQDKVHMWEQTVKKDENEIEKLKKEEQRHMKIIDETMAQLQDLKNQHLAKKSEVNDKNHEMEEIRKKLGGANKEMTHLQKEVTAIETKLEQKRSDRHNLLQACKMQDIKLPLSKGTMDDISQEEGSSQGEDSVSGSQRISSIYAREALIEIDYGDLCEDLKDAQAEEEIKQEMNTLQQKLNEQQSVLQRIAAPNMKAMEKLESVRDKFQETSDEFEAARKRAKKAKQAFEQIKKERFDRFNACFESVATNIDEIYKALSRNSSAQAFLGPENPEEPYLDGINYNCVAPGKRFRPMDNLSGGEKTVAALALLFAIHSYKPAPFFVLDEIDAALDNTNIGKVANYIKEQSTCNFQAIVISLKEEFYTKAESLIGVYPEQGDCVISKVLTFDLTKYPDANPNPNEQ

[2] = molecular target: T1, Structural Maintenance of Chromosome-1A (SMC1A) (human); assay: LI-COR based cell surface assay on tumor cells
[3] = molecular target: T1, Structural Maintenance of Chromosome-1A (SMC1A) (human); assay: cell surface binding on tumor cells; method not given

Measured: binding

B1: SMC1A4-chimeric antibody (antibody, V domains shown)
VH: VQLQQSGAELVKPGASVKLSCTASGFNIKDPYMHWVKQRPEQGLEWIGWITPANGNTKYDPKFQAKATITADTYSNTAYLQFSSLTSEDTAVYFCARSGDAYYWAWFAYWGQGTLVTVSA
VL: DVLMTQTPLSLTVSLGDQASISCRSSQSIVHSNGNTYLEWYLQKPGQSPKLLIYKVSNRFSGVSDRFSGSGSGTDFTLKISRVEAEDLGVYYCFQGPLYTFGGGTKLEIKR
notes: Chimeric IgG detected with anti-human secondary antibodies; also called chimeric SMC1A4; SMC1A4 chimeric monoclonal antibody
binds: [1] | [2] | [3]
